Assay results: PMC10777489
Results are given in words; binding and its absence hold for the method and conditions named. In cells and extracts the contact can be indirect. Some entries that bind do so weakly or less than the wild type.

Target: T1, forkhead box protein P3 (mouse (endogenous in lung tissue)), Q99JB6
T1 chain: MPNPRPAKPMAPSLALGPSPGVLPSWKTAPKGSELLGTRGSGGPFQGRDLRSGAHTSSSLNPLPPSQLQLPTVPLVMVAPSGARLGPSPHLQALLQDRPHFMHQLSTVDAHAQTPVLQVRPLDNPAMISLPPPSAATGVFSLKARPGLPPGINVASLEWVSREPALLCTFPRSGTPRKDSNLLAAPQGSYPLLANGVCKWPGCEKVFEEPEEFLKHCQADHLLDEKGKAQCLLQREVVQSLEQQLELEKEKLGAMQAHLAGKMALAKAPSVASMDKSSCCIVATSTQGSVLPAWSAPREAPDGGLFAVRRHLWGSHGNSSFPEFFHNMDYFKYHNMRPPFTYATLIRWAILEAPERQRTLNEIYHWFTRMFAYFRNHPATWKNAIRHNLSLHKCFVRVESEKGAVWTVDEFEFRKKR
Assay: co-IP; FOXP3 antibody (mouse IgG as control) on Protein A/G magnetic beads; lysate of mouse lung lobe tissue (hyperoxia for 14 d) in Non-Denaturing Lysis Buffer, incubated overnight at 4 °C; Western blotting
Details: remark: other sources report otherwise

binding: binds
B1: interferon regulatory factor 4, Q64287-1 1-450 (protein)
chain: MNLETGSRGSEFGMSAVSCGNGKLRQWLIDQIDSGKYPGLVWENEEKSVFRIPWKHAGKQDYNREEDAALFKAWALFKGKFREGIDKPDPPTWKTRLRCALNKSNDFEELVERSQLDISDPYKVYRIVPEGAKKGAKQLTLDDTQMAMGHPYPMTAPYGSLPAQQVHNYMMPPHDRSWRDYAPDQSHPEIPYQCPVTFGPRGHHWQGPSCENGCQVTGTFYACAPPESQAPGIPIEPSIRSAEALALSDCRLHICLYYRDILVKELTTTSPEGCRISHGHTYDVSNLDQVLFPYPDDNGQRKNIEKLLSHLERGLVLWMAPDGLYAKRLCQSRIYWDGPLALCSDRPNKLERDQTCKLFDTQQFLSELQVFAHHGRPAPRFQVTLCFGEEFPDPQRQRKLITAHVEPLLARQLYYFAQQNTGHFLRGYELPEHVTTPDYHRSLRHSSIQE
